The other results are listed elsewhere or left out.
target: T1, OsSMF1 (Oryza sativa, UniProt Q6ZLB0 1-436); test: protein-binding microarray (RPBM); PBS, 2% BSA, 51.3 ng/ul salmon testes DNA, 50 uM zinc acetate, 200 nM TF, 25 C, 1 h; high values mean tight binding; conditions: protein: recombinant; tags: N-terminal polyhistidine and DsRed monomer fusion (pET32a); chain copies: 2; label: CyDye5-dUTP incorporated in the synthesized complementary strand; 3' TTTTT single-stranded linker to array surface; dsDNA, one strand shown
T1 sequence: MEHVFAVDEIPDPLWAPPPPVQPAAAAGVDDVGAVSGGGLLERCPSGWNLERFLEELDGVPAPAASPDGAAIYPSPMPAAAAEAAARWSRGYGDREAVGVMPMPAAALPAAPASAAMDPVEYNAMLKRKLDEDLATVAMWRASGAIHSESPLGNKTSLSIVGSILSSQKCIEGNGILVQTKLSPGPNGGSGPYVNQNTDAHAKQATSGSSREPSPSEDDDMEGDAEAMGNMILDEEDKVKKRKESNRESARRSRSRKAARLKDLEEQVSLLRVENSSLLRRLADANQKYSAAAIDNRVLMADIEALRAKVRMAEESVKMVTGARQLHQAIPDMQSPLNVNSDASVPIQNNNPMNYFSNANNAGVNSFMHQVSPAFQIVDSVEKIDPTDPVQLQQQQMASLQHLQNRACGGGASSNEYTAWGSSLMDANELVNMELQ
Method in brief: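 Using Ni–NTA, transcription factors fused N-terminally to polyhistidine and DsRed were purified after expression in E. coli BL21-CodonPlus. These were incubated at 200 nM with a blocked, double-stranded custom Agilent array for 1 h at 25 °C in a buffer containing 50 µM zinc acetate, and the array was washed. The binding signal is per-feature fluorescence intensity (arbitrary units) on an Axon 4000B scanner.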

| Sequence | binding signal |
| --- | --- |
| CAAGCACAAACACGATCATCAAGGTCATGACAGTTCCTAGCGGAGTCACCTAGTGCAG | 3830 fluorescence intensity (a.u.) |
| CCGATTAGACTATCGTGCCATCAACACTGCTCGGCGGCGTCGGAGTCACCTAGTGCAG | 10700 fluorescence intensity (a.u.) |
| AGGTTCGGGGATCTTGATGTGGCAATGGAATTGCTTGGGCCGGAGTCACCTAGTGCAG | 5200 fluorescence intensity (a.u.) |
| GAGTGAGGGATCTAGAAGATGACACATGTGCATCTCTGATCGGAGTCACCTAGTGCAG | 5170 fluorescence intensity (a.u.) |
| ACCAAATTAGTGGCTGTACCGAACGTTATTAGCGCTTTAACGGAGTCACCTAGTGCAG | 14900 fluorescence intensity (a.u.) |
| TTTAAACATGTGCACATGCACTGTGCTGCCACGACGGAGGCGGAGTCACCTAGTGCAG | 4120 fluorescence intensity (a.u.) |
| TATCCTCTCCCGGTGTCCACGCGTGCCATTGCATTGCATTCGGAGTCACCTAGTGCAG | 3630 fluorescence intensity (a.u.) |
| ACTTGTTTGGAAGGTAGCAACAGTACACTATACACTGACTCGGAGTCACCTAGTGCAG | 3540 fluorescence intensity (a.u.) |
| TCCTGATGCCGCCACCACCTCCTTCGCTGTTACCACCTCTCGGAGTCACCTAGTGCAG | 4090 fluorescence intensity (a.u.) |
| AGTTCAATTGCTTTGATGAGTGAGCAGAGAGATGATGCAGCGGAGTCACCTAGTGCAG | 3280 fluorescence intensity (a.u.) |
| TGGGCCCGCGCCACGTGCATCCAGCATCAATCCACCACATCGGAGTCACCTAGTGCAG | 20200 fluorescence intensity (a.u.) |
| GACGACGGCGGCGGGAGCAATCCGCGGCGACGGGGCGGGGCGGAGTCACCTAGTGCAG | 4330 fluorescence intensity (a.u.) |
| GCAATGACAAAGTGTTACGGTGTATTCTTAACATCATTCTCGGAGTCACCTAGTGCAG | 3280 fluorescence intensity (a.u.) |
| AAAGTCAGAGAAAGGTATGTTAGATTGGCTAGTTAGTTTGCGGAGTCACCTAGTGCAG | 21600 fluorescence intensity (a.u.) |
| CACTCTCCTCCTACACTGCATGCTGCTGCTGACGTGGCTCCGGAGTCACCTAGTGCAG | 24900 fluorescence intensity (a.u.) |
| AGTGACAGCTCAGGCTTTGTCGATGTCGTCTCCACTACCGCGGAGTCACCTAGTGCAG | 5470 fluorescence intensity (a.u.) |
| CTTTGTTAGTGATAATATATAATGTTTGTTATACAGTCATCGGAGTCACCTAGTGCAG | 3750 fluorescence intensity (a.u.) |
| ATTTGCCACTTTTGCCCACGTGGCATGCCAACGTAGCAATCGGAGTCACCTAGTGCAG | 23000 fluorescence intensity (a.u.) |
| TAATTGTATTTCATAGATAATCCATGCACGTCATTTCCTTCGGAGTCACCTAGTGCAG | 5490 fluorescence intensity (a.u.) |
| ATTAGTTATGTGCTAATGAGTCACTCCATTTTGGTGTTAACGGAGTCACCTAGTGCAG | 4310 fluorescence intensity (a.u.) |
| CTCCACCGCCACCGCCGCCACCTCGCGAGCAGCGGCCCTGCGGAGTCACCTAGTGCAG | 3960 fluorescence intensity (a.u.) |

| Sequence | binding signal |
| --- | --- |
| TCGCCGGTGTGCAAGATGTGATGTGCTTAAGGTATTAATGCGGAGTCACCTAGTGCAG | 3320 fluorescence intensity (a.u.) |
| CCGGCCCACGCCACGCCGTCCCCATCACATCACACCGGCCCGGAGTCACCTAGTGCAG | 3930 fluorescence intensity (a.u.) |
| GTTCTACGGCGACGACGCCAAGTCGCTGATCCTGCTCATCCGGAGTCACCTAGTGCAG | 3670 fluorescence intensity (a.u.) |
| GTCGCCAGCCACGGCAGCTTGCTCCCGCTCGTCACCAAGCCGGAGTCACCTAGTGCAG | 3160 fluorescence intensity (a.u.) |
| GAGACCATCTAGCAGGAGACACGTGGGCTACCACGTGGCACGGAGTCACCTAGTGCAG | 14200 fluorescence intensity (a.u.) |
| GTATGCCATCTTGTATCCAACTTCGTCACCCGGTATCCTTCGGAGTCACCTAGTGCAG | 4840 fluorescence intensity (a.u.) |
| ATATCGTGATTATTACTCACCACACGTTGTACACAATGATCGGAGTCACCTAGTGCAG | 3750 fluorescence intensity (a.u.) |
| GTATGACTGCATTGCCAGCTGTGGAAACCTAGCCTATTTGCGGAGTCACCTAGTGCAG | 6520 fluorescence intensity (a.u.) |
| TGGGTGTTTTGTCCGCGCGCGGTGACGCAGCGTGAGGCGACGGAGTCACCTAGTGCAG | 6120 fluorescence intensity (a.u.) |
| TGACTGCGCCCTATTCACCACGTGCCACGTGCGATGACGACGGAGTCACCTAGTGCAG | 6370 fluorescence intensity (a.u.) |
| CGCCTCTCGTCGGGTGGTACATCTCCGCCCGGTCGCGCCGCGGAGTCACCTAGTGCAG | 16600 fluorescence intensity (a.u.) |
| TGATTTAAACATGTTATGTAAGGAGAGTTGGAGACAGATACGGAGTCACCTAGTGCAG | 22000 fluorescence intensity (a.u.) |
| GGCATTGGGAATAGTTGACTAGGATTAAACAACATCCAAACGGAGTCACCTAGTGCAG | 3270 fluorescence intensity (a.u.) |
| AATCGATTCTCCACTACTCTCTCGTCATTGTTCCCATGTTCGGAGTCACCTAGTGCAG | 3270 fluorescence intensity (a.u.) |
| TTCTTCGACCGCACGACACCGCCACGTCGACAACCACCTCCGGAGTCACCTAGTGCAG | 15600 fluorescence intensity (a.u.) |
| TCCCACCAGAGCGCCACGTCCACACCCACCCACACACCACCGGAGTCACCTAGTGCAG | 3940 fluorescence intensity (a.u.) |
| TGGAGAGGGAACCAACAACAAACAACCAGCTGCCTCGCCGCGGAGTCACCTAGTGCAG | 47200 fluorescence intensity (a.u.) |
| GCCCGTCCATCCAACGCTCGGACACCACGCGGGGAGGCTCCGGAGTCACCTAGTGCAG | 3580 fluorescence intensity (a.u.) |
| TTAATCATGCATAAAGATGAACATTACATGCATGCATGGTCGGAGTCACCTAGTGCAG | 26000 fluorescence intensity (a.u.) |
| GGATGGCCTCCCCAGATGCGGTTGTTAGTTGTGAGGCCGCCGGAGTCACCTAGTGCAG | 24800 fluorescence intensity (a.u.) |
| GAATCTGGGAGCTGGAGCCCTGCCAAACAGGCCCTAATGTCGGAGTCACCTAGTGCAG | 4910 fluorescence intensity (a.u.) |

2 entries drawn at random from the list so far:

| Sequence | binding signal |
| --- | --- |
| GCCCGTCCATCCAACGCTCGGACACCACGCGGGGAGGCTCCGGAGTCACCTAGTGCAG | 3580 fluorescence intensity (a.u.) |
| GGCATTGGGAATAGTTGACTAGGATTAAACAACATCCAAACGGAGTCACCTAGTGCAG | 3270 fluorescence intensity (a.u.) |
